Laboratory results reported in patent publication US9289509B2, “Uses of immunoconjugates targeting CD138” (Biotest AG, priority 2009, dated 2016).
At least one structure is not confirmed: it was looked up by name or label, or the drawing left a doubt.

Key:
U266 = assay: Combination with BT062 in cell lines (Chou and Talalay median effect analysis); type: cell-based, human; settings: U266 cells
MOLP8 = assay: as above; type: cell-based, human; settings: MOLP8 cells

C[C@@H]1C[C@H]2[C@@H]3CCC4=CC(=O)C=C[C@]4(C)[C@@]3(F)[C@@H](O)C[C@]2(C)[C@@]1(O)C(=O)CO [Dexamethasone]
estimate of synergy, drug combined with BT062 (U266): additive
estimate of synergy, drug combined with BT062 (MOLP8): additive
